Laboratory results: the supplement of paper PMC10849652
This is one part of the list. Residues, ends and D or L forms follow the SMILES beside them. *: point of attachment. Cbz = O=C(OCc1ccccc1)*

Amino acid sequences for entries named in this document (tags omitted). A change or cut given only in a name is not applied to a line headed by its entry.
UniProt Q13011: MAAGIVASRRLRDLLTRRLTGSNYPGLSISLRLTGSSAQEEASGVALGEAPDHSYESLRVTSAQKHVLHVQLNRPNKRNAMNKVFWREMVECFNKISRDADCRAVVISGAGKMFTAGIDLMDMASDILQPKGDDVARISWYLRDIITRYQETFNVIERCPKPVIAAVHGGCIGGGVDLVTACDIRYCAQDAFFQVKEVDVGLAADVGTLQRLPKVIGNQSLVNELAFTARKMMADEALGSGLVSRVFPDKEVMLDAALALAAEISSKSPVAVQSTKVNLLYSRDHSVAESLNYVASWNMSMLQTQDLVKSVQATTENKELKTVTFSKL
UniProt Q9UPQ8: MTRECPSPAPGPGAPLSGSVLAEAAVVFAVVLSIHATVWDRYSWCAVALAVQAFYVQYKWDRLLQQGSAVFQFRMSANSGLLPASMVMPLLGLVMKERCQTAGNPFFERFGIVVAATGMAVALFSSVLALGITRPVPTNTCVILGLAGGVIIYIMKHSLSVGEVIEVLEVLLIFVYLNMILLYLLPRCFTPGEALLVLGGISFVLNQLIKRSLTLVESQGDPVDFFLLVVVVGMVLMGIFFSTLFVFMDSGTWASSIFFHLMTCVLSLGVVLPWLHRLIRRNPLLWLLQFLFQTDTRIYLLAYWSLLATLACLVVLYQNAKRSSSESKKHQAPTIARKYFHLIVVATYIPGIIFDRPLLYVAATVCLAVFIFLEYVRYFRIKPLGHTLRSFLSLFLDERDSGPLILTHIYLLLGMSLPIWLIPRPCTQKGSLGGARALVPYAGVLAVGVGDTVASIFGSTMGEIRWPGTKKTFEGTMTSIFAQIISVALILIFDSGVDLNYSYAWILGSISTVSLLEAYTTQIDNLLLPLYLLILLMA
UniProt Q9NNZ3: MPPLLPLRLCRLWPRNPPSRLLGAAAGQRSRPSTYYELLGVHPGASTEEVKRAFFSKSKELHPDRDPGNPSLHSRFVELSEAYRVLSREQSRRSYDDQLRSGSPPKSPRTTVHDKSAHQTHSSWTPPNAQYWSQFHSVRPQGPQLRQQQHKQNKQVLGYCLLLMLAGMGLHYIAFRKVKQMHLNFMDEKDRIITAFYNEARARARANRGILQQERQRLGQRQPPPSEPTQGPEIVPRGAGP
UniProt P49184: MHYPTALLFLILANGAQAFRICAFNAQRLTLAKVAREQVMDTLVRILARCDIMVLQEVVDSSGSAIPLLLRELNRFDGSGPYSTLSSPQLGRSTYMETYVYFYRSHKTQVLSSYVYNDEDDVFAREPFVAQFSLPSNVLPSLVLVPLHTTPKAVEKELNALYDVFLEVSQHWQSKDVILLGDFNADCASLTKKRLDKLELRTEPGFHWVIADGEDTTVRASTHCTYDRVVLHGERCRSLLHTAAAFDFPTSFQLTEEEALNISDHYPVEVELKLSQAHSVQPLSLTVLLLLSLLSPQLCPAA
UniProt Q96N67: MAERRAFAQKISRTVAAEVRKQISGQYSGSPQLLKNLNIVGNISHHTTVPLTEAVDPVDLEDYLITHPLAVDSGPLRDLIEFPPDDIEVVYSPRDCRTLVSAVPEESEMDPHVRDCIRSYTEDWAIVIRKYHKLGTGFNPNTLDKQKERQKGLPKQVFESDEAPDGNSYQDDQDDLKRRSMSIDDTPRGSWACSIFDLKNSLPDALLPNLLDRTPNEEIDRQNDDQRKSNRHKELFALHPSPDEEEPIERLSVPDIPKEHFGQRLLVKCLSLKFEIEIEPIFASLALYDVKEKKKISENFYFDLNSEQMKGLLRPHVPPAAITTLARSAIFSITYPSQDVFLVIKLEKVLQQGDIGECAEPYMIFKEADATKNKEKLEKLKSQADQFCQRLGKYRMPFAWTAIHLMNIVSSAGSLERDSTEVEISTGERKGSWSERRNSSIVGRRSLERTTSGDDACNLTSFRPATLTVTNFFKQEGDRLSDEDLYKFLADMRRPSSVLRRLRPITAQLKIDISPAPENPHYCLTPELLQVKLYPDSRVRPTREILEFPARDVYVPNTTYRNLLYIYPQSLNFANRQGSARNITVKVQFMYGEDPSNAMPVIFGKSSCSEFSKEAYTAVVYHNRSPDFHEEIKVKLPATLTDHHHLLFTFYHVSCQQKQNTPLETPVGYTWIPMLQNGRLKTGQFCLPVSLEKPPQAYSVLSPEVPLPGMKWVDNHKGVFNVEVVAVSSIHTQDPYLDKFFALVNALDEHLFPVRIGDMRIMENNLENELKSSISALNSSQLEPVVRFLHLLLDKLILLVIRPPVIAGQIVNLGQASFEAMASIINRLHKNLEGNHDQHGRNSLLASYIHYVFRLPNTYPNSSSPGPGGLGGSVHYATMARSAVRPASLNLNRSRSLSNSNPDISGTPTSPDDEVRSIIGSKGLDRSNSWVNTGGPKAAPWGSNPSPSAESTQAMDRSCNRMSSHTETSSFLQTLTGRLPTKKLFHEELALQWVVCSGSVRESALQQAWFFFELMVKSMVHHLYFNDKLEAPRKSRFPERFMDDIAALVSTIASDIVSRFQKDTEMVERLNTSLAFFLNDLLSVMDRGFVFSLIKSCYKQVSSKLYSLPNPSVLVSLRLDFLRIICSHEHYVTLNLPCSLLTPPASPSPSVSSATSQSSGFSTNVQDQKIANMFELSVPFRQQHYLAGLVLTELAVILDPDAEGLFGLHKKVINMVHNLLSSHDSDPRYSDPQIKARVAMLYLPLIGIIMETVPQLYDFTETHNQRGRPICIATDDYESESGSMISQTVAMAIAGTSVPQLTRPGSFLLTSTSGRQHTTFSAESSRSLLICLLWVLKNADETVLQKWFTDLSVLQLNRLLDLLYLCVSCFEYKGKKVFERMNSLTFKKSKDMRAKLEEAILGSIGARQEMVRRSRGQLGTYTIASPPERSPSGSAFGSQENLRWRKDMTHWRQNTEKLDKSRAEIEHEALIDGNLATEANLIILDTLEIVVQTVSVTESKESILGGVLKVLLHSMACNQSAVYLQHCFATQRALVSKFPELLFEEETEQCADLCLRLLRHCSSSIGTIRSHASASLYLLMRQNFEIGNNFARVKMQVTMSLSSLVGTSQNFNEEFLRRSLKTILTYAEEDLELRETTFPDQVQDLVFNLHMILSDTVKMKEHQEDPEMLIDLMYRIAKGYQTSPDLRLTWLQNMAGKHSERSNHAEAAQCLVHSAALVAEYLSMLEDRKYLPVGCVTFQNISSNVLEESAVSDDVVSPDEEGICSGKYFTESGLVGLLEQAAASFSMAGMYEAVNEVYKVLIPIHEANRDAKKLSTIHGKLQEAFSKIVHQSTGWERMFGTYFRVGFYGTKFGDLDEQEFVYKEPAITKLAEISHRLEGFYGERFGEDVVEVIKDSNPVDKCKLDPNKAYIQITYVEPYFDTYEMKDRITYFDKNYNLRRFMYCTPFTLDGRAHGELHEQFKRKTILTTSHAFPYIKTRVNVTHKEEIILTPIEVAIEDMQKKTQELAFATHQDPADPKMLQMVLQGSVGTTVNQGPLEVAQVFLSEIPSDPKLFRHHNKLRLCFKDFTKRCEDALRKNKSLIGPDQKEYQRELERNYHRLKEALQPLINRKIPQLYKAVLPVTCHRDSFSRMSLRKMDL
UniProt Q5JWR5: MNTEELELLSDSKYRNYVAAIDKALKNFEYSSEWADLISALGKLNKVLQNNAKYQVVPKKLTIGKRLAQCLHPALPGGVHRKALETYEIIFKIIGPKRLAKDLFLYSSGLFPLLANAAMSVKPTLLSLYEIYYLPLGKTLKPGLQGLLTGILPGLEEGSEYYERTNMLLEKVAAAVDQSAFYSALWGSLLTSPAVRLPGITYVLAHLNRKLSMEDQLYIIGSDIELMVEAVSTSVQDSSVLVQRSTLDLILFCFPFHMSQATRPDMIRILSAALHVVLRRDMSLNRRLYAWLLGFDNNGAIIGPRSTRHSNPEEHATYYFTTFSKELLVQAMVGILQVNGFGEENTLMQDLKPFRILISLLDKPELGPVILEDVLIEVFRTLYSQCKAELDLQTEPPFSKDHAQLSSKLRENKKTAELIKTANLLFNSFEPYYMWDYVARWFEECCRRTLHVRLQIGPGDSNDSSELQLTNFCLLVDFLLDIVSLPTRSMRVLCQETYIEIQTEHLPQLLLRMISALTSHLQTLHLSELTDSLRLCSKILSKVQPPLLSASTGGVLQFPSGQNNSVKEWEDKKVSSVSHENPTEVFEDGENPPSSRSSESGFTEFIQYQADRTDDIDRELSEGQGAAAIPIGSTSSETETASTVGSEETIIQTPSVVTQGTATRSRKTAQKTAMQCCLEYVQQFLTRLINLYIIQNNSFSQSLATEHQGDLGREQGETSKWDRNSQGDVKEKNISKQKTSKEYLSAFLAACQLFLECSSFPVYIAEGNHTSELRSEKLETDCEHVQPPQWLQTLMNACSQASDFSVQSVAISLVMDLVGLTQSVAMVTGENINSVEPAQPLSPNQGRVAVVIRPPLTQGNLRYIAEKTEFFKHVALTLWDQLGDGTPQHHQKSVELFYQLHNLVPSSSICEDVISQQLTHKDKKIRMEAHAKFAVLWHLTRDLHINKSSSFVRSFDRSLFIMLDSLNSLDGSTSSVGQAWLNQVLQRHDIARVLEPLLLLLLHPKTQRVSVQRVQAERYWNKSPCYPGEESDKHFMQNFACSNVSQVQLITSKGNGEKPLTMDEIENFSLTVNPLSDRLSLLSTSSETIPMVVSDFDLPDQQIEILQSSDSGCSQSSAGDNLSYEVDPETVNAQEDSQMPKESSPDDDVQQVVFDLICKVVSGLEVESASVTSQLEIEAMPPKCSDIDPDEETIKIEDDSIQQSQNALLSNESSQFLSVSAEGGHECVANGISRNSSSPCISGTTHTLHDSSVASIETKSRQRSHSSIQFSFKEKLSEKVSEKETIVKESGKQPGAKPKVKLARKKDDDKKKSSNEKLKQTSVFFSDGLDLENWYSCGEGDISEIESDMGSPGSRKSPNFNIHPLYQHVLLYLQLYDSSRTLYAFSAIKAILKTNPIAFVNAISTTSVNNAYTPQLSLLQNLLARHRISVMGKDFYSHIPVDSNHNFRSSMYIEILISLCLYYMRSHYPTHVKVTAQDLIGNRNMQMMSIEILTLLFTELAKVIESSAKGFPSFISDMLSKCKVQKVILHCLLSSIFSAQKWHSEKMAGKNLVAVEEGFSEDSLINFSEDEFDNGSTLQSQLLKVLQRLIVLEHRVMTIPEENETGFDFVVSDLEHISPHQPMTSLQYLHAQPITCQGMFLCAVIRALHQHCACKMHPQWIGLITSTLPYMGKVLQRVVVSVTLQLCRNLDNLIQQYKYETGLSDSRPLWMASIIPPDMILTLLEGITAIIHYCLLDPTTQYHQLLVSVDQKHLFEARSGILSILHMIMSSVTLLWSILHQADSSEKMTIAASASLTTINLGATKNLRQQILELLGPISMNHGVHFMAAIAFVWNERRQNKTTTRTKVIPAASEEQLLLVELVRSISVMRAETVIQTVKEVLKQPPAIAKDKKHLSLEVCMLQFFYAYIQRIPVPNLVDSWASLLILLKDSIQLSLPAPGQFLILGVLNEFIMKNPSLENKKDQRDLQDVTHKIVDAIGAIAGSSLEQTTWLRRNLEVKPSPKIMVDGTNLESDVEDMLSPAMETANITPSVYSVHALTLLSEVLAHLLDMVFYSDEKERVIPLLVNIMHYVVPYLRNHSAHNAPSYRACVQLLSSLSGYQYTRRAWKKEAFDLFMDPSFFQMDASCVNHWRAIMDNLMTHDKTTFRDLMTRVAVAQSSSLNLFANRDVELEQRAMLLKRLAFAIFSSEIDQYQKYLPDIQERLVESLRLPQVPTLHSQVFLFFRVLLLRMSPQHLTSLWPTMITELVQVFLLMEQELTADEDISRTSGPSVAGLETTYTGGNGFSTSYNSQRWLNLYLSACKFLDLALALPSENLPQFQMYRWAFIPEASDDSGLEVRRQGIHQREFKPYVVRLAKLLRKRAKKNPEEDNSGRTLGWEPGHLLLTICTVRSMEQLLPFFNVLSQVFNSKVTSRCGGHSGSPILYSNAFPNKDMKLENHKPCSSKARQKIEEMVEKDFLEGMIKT
UniProt Q7L591: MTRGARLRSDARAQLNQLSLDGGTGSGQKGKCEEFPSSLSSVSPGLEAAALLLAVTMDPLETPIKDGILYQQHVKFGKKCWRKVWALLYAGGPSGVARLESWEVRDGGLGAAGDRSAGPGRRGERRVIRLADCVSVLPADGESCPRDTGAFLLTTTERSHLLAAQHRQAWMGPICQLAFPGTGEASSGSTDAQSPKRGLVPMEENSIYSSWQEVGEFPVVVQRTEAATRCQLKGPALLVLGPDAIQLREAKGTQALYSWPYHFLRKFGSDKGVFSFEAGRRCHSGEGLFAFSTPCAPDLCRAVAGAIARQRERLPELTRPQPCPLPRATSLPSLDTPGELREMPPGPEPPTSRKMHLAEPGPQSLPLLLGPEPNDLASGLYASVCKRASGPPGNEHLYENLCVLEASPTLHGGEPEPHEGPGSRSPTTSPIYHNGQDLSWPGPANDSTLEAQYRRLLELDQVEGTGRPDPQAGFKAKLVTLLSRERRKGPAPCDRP

Key:
Assay in all cases: log2 fold change, soluble protein after heating vs DMSO (PISA); higher = thermal stabilisation; K562 cells, 10 uM, 30 min; active = over 0.2 and 3.5 SD of the protein, either way, in both replicates (recomputed)
IRAK-1-4 Inhibitor I = compound: C1COCCN1CCN2C3=CC=CC=C3N=C2NC(=O)C4=CC(=CC=C4)[N+](=O)[O-] [IRAK-1-4 Inhibitor I]
How it was run: (§1)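 K562 cells at 2×10^6 cells/mL were treated with 10 μM compound for 30 min. Aliquots were heated for 3 min across 48°C-58°C, pooled, and extracted in PBS with 0.5% NP-40 at 4°C; soluble protein was the supernatant after 21,000xg for 90 min. Soluble protein was quantified by TMTpro 16plex LC-MS/MS with channel sums equalised, and reported as log2 fold change in thermal stability against DMSO controls, with values from duplicates.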

ibrutinib = compound: C=CC(=O)N1CCC[C@@H](n2nc(-c3ccc(Oc4ccccc4)cc3)c3c(N)ncnc32)C1 [ibrutinib]
How it was run: as §1

[1] = compound: CC(=O)c1cnc2ccc(-c3cc(Cl)c(O)c(Cl)c3)nc2c1N[C@H]1CC[C@H](CN(C)C)CC1
How it was run: as §1

ralimetinib = compound: CC(C)(C)Cn1c(N)nc2ccc(-c3[nH]c(C(C)(C)C)nc3-c3ccc(F)cc3)nc21 [ralimetinib]
How it was run: as §1

[2] = compound: CC(C)(O)CC(=O)NCCn1ccc2ncnc(Nc3ccc(Oc4cccc(C(F)(F)F)c4)c(Cl)c3)c21
How it was run: as §1

[3] = compound: CC(C)C1=C2N=C(C=C(N2N=C1)NCC3=CC=CC=C3)NCCCCCCN
How it was run: as §1

[4] = compound: CC(C)C[C@@H](C=O)NC(=O)[C@H](CC(C)C)NC(=O)[C@H](CC(C)C)NC(=O)OCc1ccccc1
How it was run: as §1

pinometostat = compound: CC(C)N(C[C@H]1O[C@@H](n2cnc3c(N)ncnc32)[C@H](O)[C@@H]1O)[C@H]1C[C@@H](CCc2nc3cc(C(C)(C)C)ccc3[nH]2)C1 [pinometostat]
How it was run: as §1

[5] = compound: CC1=C(C(CC(=O)N1)C2=CC=C(C=C2)C(F)(F)F)C(=O)NC3=C(C=C4C(=C3)C=NN4)F
How it was run: as §1

[6] = compound: CC1=C(C2=C(C=C1)C(=O)C3=CC=CC=C3N2CCCN)C
How it was run: as §1

[7] = compound: CC1=C(C=C(C=C1)NC(=O)C2=CC(=CC=C2)C(C)(C)C#N)NC3=CC4=C(C=C3)N=CN(C4=O)C
How it was run: as §1

[8] = compound: CC1=C(C=C(C=C1)NC(=O)C2=CC(=CC=C2)N(C)C)NC(=O)C3=CC=C(C=C3)O
How it was run: as §1

[9] = compound: CC1=NC(=CC=C1)C2=C(N=C(N2)C(C)(C)C)C3=CC4=NC=CN=C4C=C3
How it was run: as §1

Nexturastat A = compound: CCCCN(Cc1ccc(C(=O)NO)cc1)C(=O)Nc1ccccc1 [Nexturastat A]
How it was run: as §1

vemurafenib = compound: CCCS(=O)(=O)Nc1ccc(F)c(C(=O)c2c[nH]c3ncc(-c4ccc(Cl)cc4)cc23)c1F [vemurafenib]
How it was run: as §1

[10] = compound: CCCc1cc(C)[nH]c(=O)c1CNC(=O)c1cc(-c2ccnc(N3CCN(C)CC3)c2)cc2c1cnn2C(C)C
How it was run: as §1

givinostat = compound: CCN(CC)Cc1ccc2cc(COC(=O)Nc3ccc(C(=O)NO)cc3)ccc2c1 [givinostat]
How it was run: as §1

barasertib = compound: CCN(CCCOc1ccc2c(Nc3cc(CC(=O)Nc4cccc(F)c4)[nH]n3)ncnc2c1)CCOP(=O)(O)O [barasertib]
How it was run: as §1

[11] = compound: CC1=CC=C(C=C1)SC2=C3C=C(SC3=CN=C2)C(=O)N
How it was run: as §1

[12] = compound: CCCS(=O)(=O)Nc1ccc(F)c(C(=O)c2c[nH]c3ncc(Cl)cc23)c1F
How it was run: as §1

Measured: log2 fold change

DYSF isoform 13 (UniProt O75923)
inactive: IRAK-1-4 Inhibitor I -0.177 | ibrutinib 0.118 | [1] 0.047 | ralimetinib 0.131 | [2] 0.049 | [3] 0.2 | [4] 0.088 | pinometostat 0.17 | [5] 0.174 | [6] -0.109 | [7] 0.064 | [8] -0.017 | [9] 0.115 | Nexturastat A 0.306 | vemurafenib -0.009 | [10] 0.088 | givinostat -0.115 | barasertib 0.013

DTNBP1 (UniProt Q96EV8)
inactive: IRAK-1-4 Inhibitor I 0.069 | ibrutinib -0.025 | [1] 0.038 | ralimetinib -0.136 | [2] -0.058 | [3] -0.009 | [4] -0.029 | pinometostat -0.044 | [6] 0.092 | [7] -0.078 | [8] 0.006 | [11] 0.001 | [9] 0.055 | Nexturastat A -0.022 | vemurafenib 0.021 | [12] 0.017 | [10] -0.026 | givinostat -0.014 | barasertib 0.01

ECH1 (UniProt Q13011)
inactive: IRAK-1-4 Inhibitor I 0.056 | ibrutinib -0.003 | [1] -0.058 | ralimetinib 0.087 | [2] -0.112 | [3] -0.164 | [4] -0.033 | pinometostat 0.003 | [6] 0.076 | [7] 0.005 | [8] -0.027 | [11] 0.044 | [9] 0.014 | Nexturastat A -0.032 | vemurafenib 0.012 | [12] -0.003 | [10] -0.065 | givinostat 0.129 | barasertib 0.035

DOCK2 (UniProt Q92608)
inactive: ralimetinib 0.394 | [4] 0.334 | [8] -0.264

DOLK (UniProt Q9UPQ8)
inactive: ibrutinib -0.145 | [1] -0.016 | [2] -0.358 | [3] -0.371 | [5] -0.023 | [7] 0.099 | Nexturastat A -0.093 | givinostat 0.23 | barasertib 0.23

DNAJB2 (UniProt P25686)
inactive: ralimetinib 0.071 | [2] -0.19 | [4] 0.076 | [8] 0 | [11] -0.207 | Nexturastat A 0.039 | [12] -0.143

E4F1 (UniProt H3BN24)
inactive: ralimetinib -0.105 | [4] 0.434 | [8] -0.286

ECM1 isoform 2 (UniProt Q16610)
inactive: ibrutinib 0.154 | [1] 0.076 | [5] -0.626 | [6] 1.07 | vemurafenib 0.373 | [10] 0.211 | barasertib 0.535

DNAJC4 (UniProt Q9NNZ3)
inactive: ralimetinib -0.103 | [4] 0.287 | [8] -0.015 | [11] -0.014 | [12] -0.061

DUSP12 (UniProt V9GYV5)
inactive: IRAK-1-4 Inhibitor I 0.095 | [2] -0.133 | pinometostat 0 | [7] -0.174 | [9] -0.248 | Nexturastat A 0.027 | vemurafenib 0.095

DNM1 (UniProt Q05193)
inactive: [2] 0.367 | [3] 0.152 | Nexturastat A 0.127 | vemurafenib -0.102 | givinostat -0.05

DNASE1L1 (UniProt P49184)
inactive: [1] 0.054 | [3] -0.246 | givinostat 0.03

DSTYK (UniProt Q6XUX3)
inactive: ibrutinib -0.133 | [2] -0.172 | [3] 0.046 | [5] 0.041 | [6] 0.081 | Nexturastat A 0.182 | vemurafenib -0.037 | givinostat 0.02 | barasertib 0.056

DOCK7 (UniProt Q96N67)
inactive: ibrutinib -0.052 | [1] 0.01 | ralimetinib -0.02 | [2] -0.015 | [3] -0.06 | [4] -0.105 | [5] -0.072 | [6] 0.016 | [7] -0.037 | [8] 0.008 | [11] 0.011 | Nexturastat A -0.063 | vemurafenib 0.03 | [12] 0.007 | [10] 0.061 | givinostat 0.017 | barasertib -0.005

Random excerpt: two entries already listed, in no set order.
E4F1 (UniProt H3BN24)
inactive: ralimetinib -0.105 | [4] 0.434 | [8] -0.286

DNASE1L1 (UniProt P49184)
inactive: [1] 0.054 | [3] -0.246 | givinostat 0.03

Remaining list, next part

DOP1A (UniProt Q5JWR5)
active: Nexturastat A 0.47
inactive: ibrutinib -0.093 | [2] -0.054 | [3] 0.092 | vemurafenib 0.045 | [10] -0.166 | givinostat 0.057 | barasertib -0.047

DVL2 (UniProt O14641)
inactive: [1] -0.229 | [2] 0.003 | [7] -0.036 | [11] -0.217 | Nexturastat A 0.485 | [12] -0.263

DPYSL3 isoform 2 (UniProt Q14195)
inactive: [3] 0 | [11] -0.068 | vemurafenib -0.166 | [12] -0.035 | givinostat -0.012

EDRF1 (UniProt Q3B7T1)
inactive: ibrutinib 0.068 | ralimetinib 0.04 | [2] 0.048 | [3] 0.004 | [4] 0.066 | [7] -0.022 | [8] 0.21 | Nexturastat A -0.042 | [10] 0.019 | givinostat 0.114 | barasertib -0.036

DUSP14 (UniProt O95147)
inactive: ibrutinib 0.068 | [1] -0.043 | [2] -0.057 | [3] 0.042 | [6] -0.181 | Nexturastat A -0.217 | vemurafenib 0.072 | [10] 0.088 | givinostat 0.273 | barasertib -0.043

ECT2 isoform 3 (UniProt Q9H8V3)
inactive: ralimetinib -0.013 | [2] 0.052 | [4] 0.153 | [7] -0.313 | [8] -0.04 | Nexturastat A 0.114

DNAJB1 (UniProt M0R128)
inactive: ibrutinib -0.077 | [6] 0.111 | vemurafenib -0.002 | barasertib 0.135

DNAJC14 (UniProt Q6Y2X3)
inactive: [10] -0.334

DOK3 (UniProt Q7L591)
inactive: ibrutinib -0.001 | [1] -0.048 | [2] -0.043 | [3] -0.007 | [6] 0.098 | [7] 0.098 | [11] -0.015 | Nexturastat A 0.145 | vemurafenib 0.027 | [12] -0.013 | [10] -0.076 | givinostat 0.093 | barasertib -0.095
